# Experimental data reported in the supplement of paper PMC8728848.
# This is one part of the list.
# B1: M6PR (Bos taurus), P11456 (protein)
# chain: MMSPLHSSWRTGLLLLLLFSVAVRESWQTEEKTCDLVGEKGKESEKELALLKRLTPLFNKSFESTVGQSPDMYSYVFRVCREAGNHSSGAGLVQINKSNGKETVVGRFNETQIFNGSNWIMLIYKGGDEYDNHCGREQRRAVVMISCNRHTLADNFN
# Assays:
# Assay in all cases: glycan array binding signal (z-score within array); higher = stronger binding
# Conditions in all cases: glycan notation: IUPAC condensed, linker removed
# Fuc(a1-2)Gal = target: Fuc(a1-2)Gal
# How it was run: (§1)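 The binding signal is a Z-score computed within each array and averaged over linkers. Arrays of the same protein sequence at different concentrations or buffers were also averaged together. Data originate from 3228 arrays in the Consortium for Functional Glycomics database, kept only where the protein sequence was available.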
# Fuc(a1-2)Gal(b1-3)GalNAc = target: Fuc(a1-2)Gal(b1-3)GalNAc
# How it was run: as §1
# [1] = target: Fuc(a1-2)Gal(b1-3)GalNAc(b1-3)Gal
# How it was run: as §1
# [2] = target: Fuc(a1-2)Gal(b1-3)GalNAc(b1-3)Gal(a1-4)Gal(b1-4)Glc
# How it was run: as §1
# [3] = target: Fuc(a1-2)Gal(b1-3)GalNAc(b1-4)[Neu5Ac(a2-3)]Gal(b1-4)Glc
# How it was run: as §1
# Fuc(a1-2)Gal(b1-3)GlcNAc = target: Fuc(a1-2)Gal(b1-3)GlcNAc
# How it was run: as §1
# [4] = target: Fuc(a1-2)Gal(b1-3)GlcNAc(b1-3)Gal(b1-4)Glc
# How it was run: as §1
# [5] = target: Fuc(a1-2)Gal(b1-3)[Fuc(a1-4)]GlcNAc
# How it was run: as §1
# Fuc(a1-2)Gal(b1-4)Glc = target: Fuc(a1-2)Gal(b1-4)Glc
# How it was run: as §1
# Fuc(a1-2)Gal(b1-4)Glc6S = target: Fuc(a1-2)Gal(b1-4)Glc6S
# How it was run: as §1
# Fuc(a1-2)Gal(b1-4)GlcNAc = target: Fuc(a1-2)Gal(b1-4)GlcNAc
# How it was run: as §1
# [6] = target: Fuc(a1-2)Gal(b1-4)GlcNAc(b1-3)Gal(b1-4)GlcNAc
# How it was run: as §1
# [7] = target: Fuc(a1-2)Gal(b1-4)GlcNAc(b1-3)Gal(b1-4)GlcNAc(b1-3)Gal(b1-4)GlcNAc
# How it was run: as §1
# [8] = target: Fuc(a1-2)Gal(b1-4)GlcNAc6S
# How it was run: as §1
# [9] = target: Fuc(a1-2)Gal(b1-4)[Fuc(a1-3)]GlcNAc
# How it was run: as §1
# [10] = target: Fuc(a1-2)Gal(b1-4)[Fuc(a1-3)]GlcNAc(b1-3)Gal(b1-4)[Fuc(a1-3)]GlcNAc
# How it was run: as §1
# [11] = target: Fuc(a1-2)Gal(b1-4)[Fuc(a1-3)]GlcNAc(b1-3)Gal(b1-4)[Fuc(a1-3)]GlcNAc(b1-3)Gal(b1-4)[Fuc(a1-3)]GlcNAc
# How it was run: as §1
# Fuc(a1-2)Gal6S(b1-4)Glc = target: Fuc(a1-2)Gal6S(b1-4)Glc
# How it was run: as §1
# [12] = target: Fuc(a1-2)Gal6S(b1-4)Glc6S
# How it was run: as §1
# [13] = target: Fuc(a1-2)Gal6S(b1-4)GlcNAc
# How it was run: as §1
# Fuc(a1-2)[Gal(a1-3)]Gal = target: Fuc(a1-2)[Gal(a1-3)]Gal
# How it was run: as §1
# [14] = target: Fuc(a1-2)[Gal(a1-3)]Gal(b1-3)GlcNAc
# How it was run: as §1
# [15] = target: Fuc(a1-2)[Gal(a1-3)]Gal(b1-4)Glc
# How it was run: as §1
# [16] = target: Fuc(a1-2)[Gal(a1-3)]Gal(b1-4)GlcNAc
# How it was run: as §1
# [17] = target: Fuc(a1-2)[Gal(a1-3)]Gal(b1-4)[Fuc(a1-3)]GlcNAc
# How it was run: as §1
# [18] = target: Fuc(a1-2)[Gal(a1-4)]Gal(b1-4)GlcNAc
# How it was run: as §1
# [19] = target: Fuc(a1-2)[GalNAc(a1-3)]Gal
# How it was run: as §1
# [20] = target: Fuc(a1-2)[GalNAc(a1-3)]Gal(b1-3)GlcNAc
# How it was run: as §1
# [21] = target: Fuc(a1-2)[GalNAc(a1-3)]Gal(b1-4)Glc
# How it was run: as §1
# [22] = target: Fuc(a1-2)[GalNAc(a1-3)]Gal(b1-4)GlcNAc
# How it was run: as §1
# [23] = target: Fuc(a1-2)[GalNAc(a1-3)]Gal(b1-4)[Fuc(a1-3)]GlcNAc
# How it was run: as §1
# [24] = target: Fuc(a1-2)[GalNAc(a1-4)]Gal(b1-4)GlcNAc
# How it was run: as §1
# [25] = target: Fuc(a1-2)[GalNAc(b1-3)]Gal
# How it was run: as §1
# Fuc(a1-3)GlcNAc = target: Fuc(a1-3)GlcNAc
# How it was run: as §1
# [26] = target: Fuc(a1-3)[Gal(b1-4)]Glc6S
# How it was run: as §1
# [27] = target: Fuc(a1-3)[Gal(b1-4)]GlcNAc
# How it was run: as §1
# [28] = target: Fuc(a1-3)[Gal(b1-4)]GlcNAc(b1-3)Gal(b1-3)[Fuc(a1-4)]GlcNAc
# How it was run: as §1
# [29] = target: Fuc(a1-3)[Gal(b1-4)]GlcNAc(b1-4)Gal(b1-4)[Fuc(a1-3)]GlcNAc
# How it was run: as §1
# [30] = target: Fuc(a1-3)[Gal(b1-4)]GlcNAc(b1-4)Gal(b1-4)[Fuc(a1-3)]GlcNAc(b1-4)Gal(b1-4)[Fuc(a1-3)]GlcNAc
# How it was run: as §1
# [31] = target: Fuc(a1-3)[Gal(b1-4)]GlcNAc6S
# How it was run: as §1
# [32] = target: Fuc(a1-3)[Gal3S(b1-4)]Glc6S
# How it was run: as §1
# [33] = target: Fuc(a1-3)[Gal3S(b1-4)]GlcNAc
# How it was run: as §1
# [34] = target: Fuc(a1-3)[Gal3S(b1-4)]GlcNAc6S
# How it was run: as §1
# [35] = target: Fuc(a1-3)[GalNAc(b1-4)]GlcNAc
# How it was run: as §1
# Fuc(a1-4)GlcNAc = target: Fuc(a1-4)GlcNAc
# How it was run: as §1
# Fuc(b1-3)GlcNAc = target: Fuc(b1-3)GlcNAc
# How it was run: as §1
# Gal(a1-2)Gal = target: Gal(a1-2)Gal
# How it was run: as §1
# Gal(a1-3)Gal = target: Gal(a1-3)Gal
# How it was run: as §1
# Gal(a1-3)Gal(b1-3)GlcNAc = target: Gal(a1-3)Gal(b1-3)GlcNAc
# How it was run: as §1
# Gal(a1-3)Gal(b1-4)Glc = target: Gal(a1-3)Gal(b1-4)Glc
# How it was run: as §1
# Gal(a1-3)Gal(b1-4)GlcNAc = target: Gal(a1-3)Gal(b1-4)GlcNAc
# How it was run: as §1
# [36] = target: Gal(a1-3)Gal(b1-4)[Fuc(a1-3)]GlcNAc
# How it was run: as §1
# Gal(a1-3)GalNAc = target: Gal(a1-3)GalNAc
# How it was run: as §1
# [37] = target: Gal(a1-3)[Gal(a1-4)]Gal(b1-4)GlcNAc
# How it was run: as §1
# Gal(a1-4)Gal(b1-4)Glc = target: Gal(a1-4)Gal(b1-4)Glc
# How it was run: as §1
# Gal(a1-4)Gal(b1-4)GlcNAc = target: Gal(a1-4)Gal(b1-4)GlcNAc
# How it was run: as §1
# Gal(a1-4)GlcNAc = target: Gal(a1-4)GlcNAc
# How it was run: as §1
# Gal(a1-6)Glc = target: Gal(a1-6)Glc
# How it was run: as §1
# Gal(b1-2)Gal = target: Gal(b1-2)Gal
# How it was run: as §1
# Gal(b1-3)Gal = target: Gal(b1-3)Gal
# How it was run: as §1
binder,measurement,setting,value
B1,glycan array binding signal (z-score),Fuc(a1-2)Gal,-0.18
same,glycan array binding signal (z-score),Fuc(a1-2)Gal(b1-3)GalNAc,0.215
same,glycan array binding signal (z-score),[1],0.114
same,glycan array binding signal (z-score),[2],0.014
same,glycan array binding signal (z-score),[3],2.76
same,glycan array binding signal (z-score),Fuc(a1-2)Gal(b1-3)GlcNAc,-0.189
same,glycan array binding signal (z-score),[4],-0.429
same,glycan array binding signal (z-score),[5],0.201
same,glycan array binding signal (z-score),Fuc(a1-2)Gal(b1-4)Glc,-0.153
same,glycan array binding signal (z-score),Fuc(a1-2)Gal(b1-4)Glc6S,-0.679
same,glycan array binding signal (z-score),Fuc(a1-2)Gal(b1-4)GlcNAc,0.724
same,glycan array binding signal (z-score),[6],0.062
same,glycan array binding signal (z-score),[7],0.026
same,glycan array binding signal (z-score),[8],-0.681
same,glycan array binding signal (z-score),[9],0.437
same,glycan array binding signal (z-score),[10],-0.237
same,glycan array binding signal (z-score),[11],0.021
same,glycan array binding signal (z-score),Fuc(a1-2)Gal6S(b1-4)Glc,-0.506
same,glycan array binding signal (z-score),[12],-0.512
same,glycan array binding signal (z-score),[13],-0.21
same,glycan array binding signal (z-score),Fuc(a1-2)[Gal(a1-3)]Gal,-0.265
same,glycan array binding signal (z-score),[14],-0.012
same,glycan array binding signal (z-score),[15],0.109
same,glycan array binding signal (z-score),[16],0.078
same,glycan array binding signal (z-score),[17],0.725
same,glycan array binding signal (z-score),[18],0.223
same,glycan array binding signal (z-score),[19],-0.021
same,glycan array binding signal (z-score),[20],0.249
same,glycan array binding signal (z-score),[21],-0.153
same,glycan array binding signal (z-score),[22],0.327
same,glycan array binding signal (z-score),[23],0.578
same,glycan array binding signal (z-score),[24],-0.255
same,glycan array binding signal (z-score),[25],0.283
same,glycan array binding signal (z-score),Fuc(a1-3)GlcNAc,-0.026
same,glycan array binding signal (z-score),[26],-0.511
same,glycan array binding signal (z-score),[27],-0.422
same,glycan array binding signal (z-score),[28],-0.648
same,glycan array binding signal (z-score),[29],-0.282
same,glycan array binding signal (z-score),[30],-0.375
same,glycan array binding signal (z-score),[31],-0.828
same,glycan array binding signal (z-score),[32],-0.34
same,glycan array binding signal (z-score),[33],-0.167
same,glycan array binding signal (z-score),[34],-0.421
same,glycan array binding signal (z-score),[35],-0.338
same,glycan array binding signal (z-score),Fuc(a1-4)GlcNAc,-0.026
same,glycan array binding signal (z-score),Fuc(b1-3)GlcNAc,0.075
same,glycan array binding signal (z-score),Gal(a1-2)Gal,0.848
same,glycan array binding signal (z-score),Gal(a1-3)Gal,0.308
same,glycan array binding signal (z-score),Gal(a1-3)Gal(b1-3)GlcNAc,0.409
same,glycan array binding signal (z-score),Gal(a1-3)Gal(b1-4)Glc,-0.13
same,glycan array binding signal (z-score),Gal(a1-3)Gal(b1-4)GlcNAc,-0.036
same,glycan array binding signal (z-score),[36],0.296
same,glycan array binding signal (z-score),Gal(a1-3)GalNAc,0.8
same,glycan array binding signal (z-score),[37],-0.029
same,glycan array binding signal (z-score),Gal(a1-4)Gal(b1-4)Glc,0.066
same,glycan array binding signal (z-score),Gal(a1-4)Gal(b1-4)GlcNAc,-0.101
same,glycan array binding signal (z-score),Gal(a1-4)GlcNAc,0.561
same,glycan array binding signal (z-score),Gal(a1-6)Glc,0.436
same,glycan array binding signal (z-score),Gal(b1-2)Gal,0.315
same,glycan array binding signal (z-score),Gal(b1-3)Gal,-0.131

# As a working copy, part of the list above.
binder,measurement,setting,value
B1,glycan array binding signal (z-score),[14],-0.012
same,glycan array binding signal (z-score),[15],0.109
same,glycan array binding signal (z-score),[16],0.078
same,glycan array binding signal (z-score),[17],0.725

# Shown with tabs: entries from further up.
binder	measurement	setting	value
B1	glycan array binding signal (z-score)	Gal(a1-2)Gal	0.848
same	glycan array binding signal (z-score)	Gal(a1-3)Gal	0.308
